From the supplement of paper PMC12823440, “Inhibitors supercharge kinase turnover through native proteolytic circuits” (Nature, 2025) come the findings set out here.

Protein sequences, listed by entry. Tags and fused reporters are not part of them. Lines headed by an entry give the natural chain unless they say otherwise; changes in a name come on top.
UniProt Q15208: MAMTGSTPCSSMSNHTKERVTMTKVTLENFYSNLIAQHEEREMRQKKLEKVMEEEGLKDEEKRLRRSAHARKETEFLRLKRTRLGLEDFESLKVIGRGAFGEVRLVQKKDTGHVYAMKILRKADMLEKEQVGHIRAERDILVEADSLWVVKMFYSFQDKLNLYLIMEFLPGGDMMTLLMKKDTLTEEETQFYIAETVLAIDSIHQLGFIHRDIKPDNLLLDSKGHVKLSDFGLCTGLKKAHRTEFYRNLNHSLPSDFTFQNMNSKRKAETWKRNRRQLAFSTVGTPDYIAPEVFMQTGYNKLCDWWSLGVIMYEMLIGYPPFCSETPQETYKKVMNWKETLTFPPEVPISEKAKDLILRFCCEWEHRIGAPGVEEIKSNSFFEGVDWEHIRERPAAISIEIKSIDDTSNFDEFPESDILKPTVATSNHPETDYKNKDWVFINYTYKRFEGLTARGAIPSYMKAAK
UniProt P42680: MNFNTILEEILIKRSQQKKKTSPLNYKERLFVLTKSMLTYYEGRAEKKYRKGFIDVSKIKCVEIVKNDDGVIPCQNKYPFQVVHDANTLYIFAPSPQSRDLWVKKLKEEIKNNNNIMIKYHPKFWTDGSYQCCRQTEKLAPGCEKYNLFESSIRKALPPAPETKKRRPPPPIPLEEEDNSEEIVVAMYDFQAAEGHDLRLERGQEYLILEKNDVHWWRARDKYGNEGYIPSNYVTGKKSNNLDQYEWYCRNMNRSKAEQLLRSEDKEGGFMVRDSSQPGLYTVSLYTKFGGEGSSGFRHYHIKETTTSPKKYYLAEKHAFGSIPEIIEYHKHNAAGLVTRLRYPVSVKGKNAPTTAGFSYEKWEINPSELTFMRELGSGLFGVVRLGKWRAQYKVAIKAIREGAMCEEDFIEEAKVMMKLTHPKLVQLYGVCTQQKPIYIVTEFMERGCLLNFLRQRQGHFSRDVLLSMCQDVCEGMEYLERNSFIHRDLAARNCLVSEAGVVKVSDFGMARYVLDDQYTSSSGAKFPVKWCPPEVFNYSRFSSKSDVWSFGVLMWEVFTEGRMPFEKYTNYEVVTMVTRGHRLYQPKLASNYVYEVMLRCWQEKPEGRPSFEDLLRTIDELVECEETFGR
UniProt Q6PHR2: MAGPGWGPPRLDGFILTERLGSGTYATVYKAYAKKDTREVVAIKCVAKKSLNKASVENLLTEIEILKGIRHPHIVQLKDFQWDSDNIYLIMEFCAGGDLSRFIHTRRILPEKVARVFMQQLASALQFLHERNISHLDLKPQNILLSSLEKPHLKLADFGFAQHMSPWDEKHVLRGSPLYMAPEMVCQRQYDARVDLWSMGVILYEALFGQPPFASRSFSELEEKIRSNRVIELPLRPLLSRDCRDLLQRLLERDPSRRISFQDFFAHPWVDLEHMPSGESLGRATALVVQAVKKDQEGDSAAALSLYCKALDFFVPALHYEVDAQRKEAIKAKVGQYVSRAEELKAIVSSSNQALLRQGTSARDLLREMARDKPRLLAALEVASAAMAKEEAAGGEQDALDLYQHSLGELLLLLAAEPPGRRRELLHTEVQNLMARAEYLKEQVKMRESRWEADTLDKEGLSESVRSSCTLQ
UniProt P07947, whole entry, looked up: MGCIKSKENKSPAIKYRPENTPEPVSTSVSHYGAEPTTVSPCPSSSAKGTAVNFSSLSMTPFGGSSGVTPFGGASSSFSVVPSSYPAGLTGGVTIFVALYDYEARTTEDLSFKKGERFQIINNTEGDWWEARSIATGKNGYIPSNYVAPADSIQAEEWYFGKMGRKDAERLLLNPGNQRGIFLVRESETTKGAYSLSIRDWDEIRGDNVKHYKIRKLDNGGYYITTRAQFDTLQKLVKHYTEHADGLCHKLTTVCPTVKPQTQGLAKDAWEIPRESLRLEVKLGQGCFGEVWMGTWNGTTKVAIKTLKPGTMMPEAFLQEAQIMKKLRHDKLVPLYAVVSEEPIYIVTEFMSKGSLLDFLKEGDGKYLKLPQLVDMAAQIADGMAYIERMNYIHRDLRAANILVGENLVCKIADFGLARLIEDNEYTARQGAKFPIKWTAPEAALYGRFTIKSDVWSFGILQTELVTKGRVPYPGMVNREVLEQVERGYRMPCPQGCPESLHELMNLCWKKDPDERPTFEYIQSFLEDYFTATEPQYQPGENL
UniProt P00519, whole entry: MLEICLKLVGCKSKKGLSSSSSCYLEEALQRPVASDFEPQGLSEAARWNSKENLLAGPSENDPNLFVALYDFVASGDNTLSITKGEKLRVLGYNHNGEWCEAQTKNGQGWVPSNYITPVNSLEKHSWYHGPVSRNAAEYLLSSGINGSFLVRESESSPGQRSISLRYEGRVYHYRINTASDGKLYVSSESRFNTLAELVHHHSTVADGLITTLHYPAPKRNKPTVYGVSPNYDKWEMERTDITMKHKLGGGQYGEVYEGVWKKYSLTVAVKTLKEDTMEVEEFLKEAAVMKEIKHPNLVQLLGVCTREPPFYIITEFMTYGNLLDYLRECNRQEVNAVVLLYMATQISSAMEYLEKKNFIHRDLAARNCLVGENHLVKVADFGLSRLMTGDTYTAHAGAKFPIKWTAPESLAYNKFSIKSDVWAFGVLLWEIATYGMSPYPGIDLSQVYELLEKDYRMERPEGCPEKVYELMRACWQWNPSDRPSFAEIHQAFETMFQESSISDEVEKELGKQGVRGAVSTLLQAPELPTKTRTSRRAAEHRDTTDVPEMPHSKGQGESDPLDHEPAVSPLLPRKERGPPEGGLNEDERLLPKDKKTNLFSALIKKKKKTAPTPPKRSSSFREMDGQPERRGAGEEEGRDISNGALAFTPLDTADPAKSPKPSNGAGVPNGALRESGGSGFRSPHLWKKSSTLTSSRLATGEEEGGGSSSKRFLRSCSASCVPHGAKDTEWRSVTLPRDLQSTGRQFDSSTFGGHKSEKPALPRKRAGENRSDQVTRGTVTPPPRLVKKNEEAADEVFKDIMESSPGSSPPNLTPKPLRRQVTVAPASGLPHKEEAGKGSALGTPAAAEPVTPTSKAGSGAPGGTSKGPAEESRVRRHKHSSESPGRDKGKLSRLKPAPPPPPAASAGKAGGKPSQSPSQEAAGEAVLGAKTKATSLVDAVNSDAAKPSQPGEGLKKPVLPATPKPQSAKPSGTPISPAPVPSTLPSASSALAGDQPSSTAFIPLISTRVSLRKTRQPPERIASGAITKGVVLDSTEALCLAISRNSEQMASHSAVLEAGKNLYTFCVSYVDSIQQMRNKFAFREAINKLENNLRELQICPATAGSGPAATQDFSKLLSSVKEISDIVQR
UniProt P31749: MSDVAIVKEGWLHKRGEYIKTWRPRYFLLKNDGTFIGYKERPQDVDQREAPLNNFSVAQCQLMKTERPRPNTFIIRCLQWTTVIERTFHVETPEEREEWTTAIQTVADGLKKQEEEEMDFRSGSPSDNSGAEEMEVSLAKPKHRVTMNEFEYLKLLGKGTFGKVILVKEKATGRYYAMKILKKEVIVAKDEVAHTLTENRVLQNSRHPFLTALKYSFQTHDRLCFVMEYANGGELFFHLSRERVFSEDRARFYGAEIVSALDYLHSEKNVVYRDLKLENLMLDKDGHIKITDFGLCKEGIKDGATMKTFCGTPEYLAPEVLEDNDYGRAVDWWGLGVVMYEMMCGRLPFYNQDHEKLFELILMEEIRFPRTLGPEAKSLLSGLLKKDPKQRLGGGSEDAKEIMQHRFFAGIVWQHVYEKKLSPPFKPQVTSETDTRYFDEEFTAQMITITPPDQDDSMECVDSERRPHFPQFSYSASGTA
UniProt P10398: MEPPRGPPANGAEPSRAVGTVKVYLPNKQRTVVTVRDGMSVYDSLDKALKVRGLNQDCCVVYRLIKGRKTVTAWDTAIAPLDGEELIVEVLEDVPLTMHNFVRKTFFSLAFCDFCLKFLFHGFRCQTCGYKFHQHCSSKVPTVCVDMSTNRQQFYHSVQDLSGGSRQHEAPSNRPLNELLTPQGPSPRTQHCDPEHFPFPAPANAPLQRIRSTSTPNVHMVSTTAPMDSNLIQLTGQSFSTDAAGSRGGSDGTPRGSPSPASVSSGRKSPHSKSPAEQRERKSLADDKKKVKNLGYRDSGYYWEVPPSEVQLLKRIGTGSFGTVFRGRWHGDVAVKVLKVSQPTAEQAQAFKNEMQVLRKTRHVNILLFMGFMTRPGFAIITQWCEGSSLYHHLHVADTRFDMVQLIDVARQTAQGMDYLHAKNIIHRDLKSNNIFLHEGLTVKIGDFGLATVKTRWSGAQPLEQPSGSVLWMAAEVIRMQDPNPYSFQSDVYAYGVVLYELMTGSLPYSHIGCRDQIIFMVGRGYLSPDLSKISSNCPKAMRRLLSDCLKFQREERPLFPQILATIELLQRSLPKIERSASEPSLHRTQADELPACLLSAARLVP
UniProt O14965: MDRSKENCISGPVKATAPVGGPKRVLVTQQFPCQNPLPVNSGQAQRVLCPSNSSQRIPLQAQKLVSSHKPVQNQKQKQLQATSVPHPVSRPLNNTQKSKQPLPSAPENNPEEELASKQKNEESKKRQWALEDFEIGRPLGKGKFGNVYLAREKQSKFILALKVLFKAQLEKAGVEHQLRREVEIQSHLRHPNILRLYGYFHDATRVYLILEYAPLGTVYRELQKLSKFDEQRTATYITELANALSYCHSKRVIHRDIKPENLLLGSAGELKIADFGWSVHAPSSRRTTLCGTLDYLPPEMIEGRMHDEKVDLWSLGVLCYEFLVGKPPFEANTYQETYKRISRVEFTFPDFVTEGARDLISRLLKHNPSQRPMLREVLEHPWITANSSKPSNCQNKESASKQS
UniProt Q96GD4, whole entry: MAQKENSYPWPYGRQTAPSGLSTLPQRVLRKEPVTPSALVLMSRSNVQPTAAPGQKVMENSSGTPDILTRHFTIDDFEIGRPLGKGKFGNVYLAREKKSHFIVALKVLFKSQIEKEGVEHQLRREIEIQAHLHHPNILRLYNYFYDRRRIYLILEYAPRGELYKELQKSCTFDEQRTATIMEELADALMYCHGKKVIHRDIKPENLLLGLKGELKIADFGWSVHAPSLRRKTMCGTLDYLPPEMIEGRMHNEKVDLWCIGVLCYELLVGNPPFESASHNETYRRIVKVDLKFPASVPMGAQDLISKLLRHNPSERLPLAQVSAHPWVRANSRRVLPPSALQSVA
UniProt Q9UQB9: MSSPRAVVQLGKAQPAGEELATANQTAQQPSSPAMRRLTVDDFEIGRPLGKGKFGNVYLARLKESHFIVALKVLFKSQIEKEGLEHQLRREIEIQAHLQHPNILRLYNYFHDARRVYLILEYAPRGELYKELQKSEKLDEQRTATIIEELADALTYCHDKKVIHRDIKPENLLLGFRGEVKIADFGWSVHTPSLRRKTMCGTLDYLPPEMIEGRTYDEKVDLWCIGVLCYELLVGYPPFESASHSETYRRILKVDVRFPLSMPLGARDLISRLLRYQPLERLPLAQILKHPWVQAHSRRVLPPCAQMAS
UniProt P51451: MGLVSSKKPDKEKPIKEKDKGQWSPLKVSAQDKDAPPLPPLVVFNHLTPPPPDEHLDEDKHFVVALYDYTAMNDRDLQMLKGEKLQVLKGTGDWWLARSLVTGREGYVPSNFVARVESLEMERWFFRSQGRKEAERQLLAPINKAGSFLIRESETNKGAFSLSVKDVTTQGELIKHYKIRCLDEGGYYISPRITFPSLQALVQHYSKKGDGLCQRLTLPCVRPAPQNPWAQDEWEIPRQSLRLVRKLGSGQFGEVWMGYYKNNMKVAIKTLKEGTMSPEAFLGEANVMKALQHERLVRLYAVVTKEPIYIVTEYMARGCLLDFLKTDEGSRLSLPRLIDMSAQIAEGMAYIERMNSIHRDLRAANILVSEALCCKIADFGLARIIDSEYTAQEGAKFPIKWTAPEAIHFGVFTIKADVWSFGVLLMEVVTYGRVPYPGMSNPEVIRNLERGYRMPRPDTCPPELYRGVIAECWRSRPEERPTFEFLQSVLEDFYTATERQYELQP
UniProt P51813: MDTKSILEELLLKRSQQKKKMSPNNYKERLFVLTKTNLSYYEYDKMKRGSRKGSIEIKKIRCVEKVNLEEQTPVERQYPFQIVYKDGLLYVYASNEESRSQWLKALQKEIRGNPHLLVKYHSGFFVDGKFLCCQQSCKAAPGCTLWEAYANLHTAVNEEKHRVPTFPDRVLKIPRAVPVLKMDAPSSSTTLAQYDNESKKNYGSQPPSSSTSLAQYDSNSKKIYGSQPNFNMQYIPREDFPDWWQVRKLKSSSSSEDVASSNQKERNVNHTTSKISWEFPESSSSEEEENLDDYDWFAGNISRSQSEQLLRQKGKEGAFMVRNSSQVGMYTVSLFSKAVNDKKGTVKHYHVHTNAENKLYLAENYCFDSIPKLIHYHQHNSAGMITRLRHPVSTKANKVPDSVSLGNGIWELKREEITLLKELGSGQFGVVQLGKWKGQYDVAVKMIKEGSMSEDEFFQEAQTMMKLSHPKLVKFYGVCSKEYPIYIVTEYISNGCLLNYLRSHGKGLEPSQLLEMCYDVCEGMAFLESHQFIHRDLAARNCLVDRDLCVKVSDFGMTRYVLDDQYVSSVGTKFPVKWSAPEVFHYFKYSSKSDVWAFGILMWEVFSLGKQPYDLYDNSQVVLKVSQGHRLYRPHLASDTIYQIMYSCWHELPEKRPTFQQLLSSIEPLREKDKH

Holding throughout (details): K562; 2-18 h
The target of one experiment is STK38 (UniProt Q15208). As to the kind of experiment: kinase-Nluc reporter destabilization hit call (1 = scored as downregulated) (binary); higher = compound decreases kinase abundance.
The target of another experiment is SYK (UniProt P43405). The description is as above.
Another experiment concerns the target TEC (UniProt P42680). The description is as above.
Another experiment has as its target TYK2 (UniProt P29597). The experiment is described as above.
The target of a further experiment is ULK3 (UniProt Q6PHR2). The experiment is described as above.
The next experiment has as its target YES1 (UniProt P07947). Described as above.
Another experiment concerns the target ZAK (UniProt Q9NYL2). The experiment is described as above.
The next experiment deals with ZAP70 (UniProt P43403). Described as above.
The target of another experiment is ABL1 (UniProt P00519). As to the kind of experiment: number of time points (of 5) at which kinase-Nluc abundance scored as decreased, DMSO-normalised (count); higher = more persistent destabilization.
The next experiment has as its target AKT1 (UniProt P31749). The experiment is described as above.
Another experiment has as its target ALK (UniProt Q9UM73). The experiment is described as above.
A further experiment has as its target ARAF (UniProt P10398). The experiment is described as above.
The target in the next experiment is AURKA (UniProt O14965). The experiment is described as above.
A further experiment addresses AURKB (UniProt Q96GD4). The experiment is described as above.
The next experiment addresses AURKC (UniProt Q9UQB9). Described as above.
A further experiment deals with BLK (UniProt P51451). Described as above.
The target of another experiment is BMX (UniProt P51813). Described as above.
The target of another experiment is BRAF (UniProt P15056). Described as above.
In another experiment the test system is BRAF_V600E. The description is as above.
The target of another experiment is BTK (UniProt Q06187). Described as above.

The list shows a part of the results. Hit calls seldom repeat between salt and free forms of one compound.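 Kinases, fused to nanoluciferase, were expressed in K562 cells; luminescence was measured every 4 h from 2 to 18 h as percent of control (DMSO = 100%, positive control = 0%). A time point is decreased if signal falls significantly (2 sigma). Hits were called by the authors by a rule that is not shown; the count of time points alone does not decide it.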

For the compound `Cc1ccc(NC(=O)c2ccnc(C(F)(F)F)c2)cc1-c1cc(OCCO)nc(N2CCOCC2)c1` (10 µM), the “kinase-Nluc reporter destabilization hit call” value in the experiment with STK38, with SYK, in the experiment with TEC, in the experiment with TYK2, with ULK3 and in the experiment with YES1 was inactive: 0 in each case. The “kinase-Nluc reporter destabilization hit call” value in the experiment with ZAK and with ZAP70 was inactive: 0 in each case. For the same compound, the “number of time points” value with ABL1, with AKT1, with ALK, with ARAF, in the experiment with AURKA and in the experiment with AURKB was 0 throughout. In addition, the “number of time points” value with AURKC, with BLK, in the experiment with BMX, in the experiment with BRAF, with BRAF_V600E and with BTK was 0 throughout.
As to `CC[C@@](C)(Nc1ccnc(-c2c[nH]c3ncccc23)n1)C(=O)NCC(F)(F)F` [Decernotinib] (10 µM), the “kinase-Nluc reporter destabilization hit call” value in the experiment with STK38, in the experiment with SYK, with TEC, in the experiment with TYK2, with ULK3 and with YES1 was inactive: 0 throughout. Moreover, the “kinase-Nluc reporter destabilization hit call” value in the experiment with ZAK and with ZAP70 was inactive: 0 throughout. Besides, the “number of time points” value with ABL1, with AKT1, with ALK, with ARAF, in the experiment with AURKA and with AURKB was 0 throughout. Further, the “number of time points” value with AURKC, with BLK, in the experiment with BMX, with BRAF, with BRAF_V600E and with BTK was 0 each time.
`CCN(CC)CCC(=O)N1N=C(c2c(-c3ccccc3)c3cc(Br)ccc3[nH]c2=O)CC1c1ccc(Br)cc1` (stereo not given) (2.5 µM): the “kinase-Nluc reporter destabilization hit call” value with STK38, in the experiment with SYK, with TEC, with TYK2, with ULK3 and with YES1 was inactive: 0 each time. Further, the “kinase-Nluc reporter destabilization hit call” value in the experiment with ZAK and with ZAP70 was inactive: 0 each time. The “number of time points” value in the experiment with ABL1 is 0; in the experiment with AKT1, 0; in the experiment with ALK it was 0; in the experiment with ARAF, 0; with AURKA, 4; with AURKB it was 4. Besides, the “number of time points” value amounted to 0 in the experiment with AURKC; 1 in the experiment with BLK; 0 with BMX; 0 in the experiment with BRAF; 0 with BRAF_V600E; 0 in the experiment with BTK.
With `CC(C)=CC(=O)O[C@H]1Cc2cc3ccc(=O)oc3cc2OC1(C)C` [Decursin] (10 µM), the “kinase-Nluc reporter destabilization hit call” value with STK38, with SYK, in the experiment with TEC, in the experiment with TYK2, with ULK3 and in the experiment with YES1 was inactive: 0 each time. The “kinase-Nluc reporter destabilization hit call” value with ZAK and with ZAP70 was inactive: 0 each time. In addition, the “number of time points” value with ABL1, with AKT1, in the experiment with ALK, with ARAF, with AURKA and with AURKB was 0 each time. Besides, the “number of time points” value in the experiment with AURKC, with BLK, with BMX, with BRAF, in the experiment on BRAF_V600E and in the experiment with BTK was 0 throughout.
Consider `COc1cc(-c2cn[nH]c2)ccc1C(=O)Nc1ccc2c(c1)CCNCC2` (10 µM), for which the “kinase-Nluc reporter destabilization hit call” value with STK38, in the experiment with SYK, in the experiment with TEC, in the experiment with TYK2, in the experiment with ULK3 and in the experiment with YES1 was inactive: 0 each time. The “kinase-Nluc reporter destabilization hit call” value with ZAK and in the experiment with ZAP70 was inactive: 0 throughout. Also, the “number of time points” value in the experiment with ABL1, with AKT1, in the experiment with ALK, with ARAF, with AURKA and with AURKB was 0 each time. Moreover, the “number of time points” value in the experiment with AURKC, with BLK, in the experiment with BMX, in the experiment with BRAF, with BRAF_V600E and with BTK was 0 each time.
Take `Oc1ccc(/C=C/c2cc(O)cc(F)c2)cc1` [Resveratrol analog 1] (10 µM): the “kinase-Nluc reporter destabilization hit call” value with STK38, with SYK, in the experiment with TEC, with TYK2, in the experiment with ULK3 and with YES1 was inactive: 0 in each case. Also, the “kinase-Nluc reporter destabilization hit call” value with ZAK and with ZAP70 was inactive: 0 throughout. The “number of time points” value with ABL1, with AKT1, with ALK, with ARAF, with AURKA and in the experiment with AURKB was 0 in each case. The “number of time points” value with AURKC, with BLK, with BMX, with BRAF, in the experiment with BRAF_V600E and in the experiment with BTK was 0 each time.
